Data taken from ChEMBL document CHEMBL3988442, “University of Dundee, Small-Polar-MMV Screening Library” (2021).

Sequences of proteins named here, by UniProt entry; tags and fusion partners are left off. Residues count along the entry.
UniProt P9WPC5, whole entry: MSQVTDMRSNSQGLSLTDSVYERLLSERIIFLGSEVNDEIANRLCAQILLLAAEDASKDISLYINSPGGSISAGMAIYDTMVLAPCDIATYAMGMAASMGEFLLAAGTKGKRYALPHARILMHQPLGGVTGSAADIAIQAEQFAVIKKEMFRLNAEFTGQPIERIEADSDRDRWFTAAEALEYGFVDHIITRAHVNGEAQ
UniProt P9WPC3, whole entry partner: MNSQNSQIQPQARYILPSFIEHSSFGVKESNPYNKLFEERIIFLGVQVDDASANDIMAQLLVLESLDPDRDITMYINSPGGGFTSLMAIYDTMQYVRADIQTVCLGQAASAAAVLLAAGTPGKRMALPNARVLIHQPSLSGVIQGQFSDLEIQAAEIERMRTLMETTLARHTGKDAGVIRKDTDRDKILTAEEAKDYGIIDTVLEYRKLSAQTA
UniProt I6X8D2, whole entry: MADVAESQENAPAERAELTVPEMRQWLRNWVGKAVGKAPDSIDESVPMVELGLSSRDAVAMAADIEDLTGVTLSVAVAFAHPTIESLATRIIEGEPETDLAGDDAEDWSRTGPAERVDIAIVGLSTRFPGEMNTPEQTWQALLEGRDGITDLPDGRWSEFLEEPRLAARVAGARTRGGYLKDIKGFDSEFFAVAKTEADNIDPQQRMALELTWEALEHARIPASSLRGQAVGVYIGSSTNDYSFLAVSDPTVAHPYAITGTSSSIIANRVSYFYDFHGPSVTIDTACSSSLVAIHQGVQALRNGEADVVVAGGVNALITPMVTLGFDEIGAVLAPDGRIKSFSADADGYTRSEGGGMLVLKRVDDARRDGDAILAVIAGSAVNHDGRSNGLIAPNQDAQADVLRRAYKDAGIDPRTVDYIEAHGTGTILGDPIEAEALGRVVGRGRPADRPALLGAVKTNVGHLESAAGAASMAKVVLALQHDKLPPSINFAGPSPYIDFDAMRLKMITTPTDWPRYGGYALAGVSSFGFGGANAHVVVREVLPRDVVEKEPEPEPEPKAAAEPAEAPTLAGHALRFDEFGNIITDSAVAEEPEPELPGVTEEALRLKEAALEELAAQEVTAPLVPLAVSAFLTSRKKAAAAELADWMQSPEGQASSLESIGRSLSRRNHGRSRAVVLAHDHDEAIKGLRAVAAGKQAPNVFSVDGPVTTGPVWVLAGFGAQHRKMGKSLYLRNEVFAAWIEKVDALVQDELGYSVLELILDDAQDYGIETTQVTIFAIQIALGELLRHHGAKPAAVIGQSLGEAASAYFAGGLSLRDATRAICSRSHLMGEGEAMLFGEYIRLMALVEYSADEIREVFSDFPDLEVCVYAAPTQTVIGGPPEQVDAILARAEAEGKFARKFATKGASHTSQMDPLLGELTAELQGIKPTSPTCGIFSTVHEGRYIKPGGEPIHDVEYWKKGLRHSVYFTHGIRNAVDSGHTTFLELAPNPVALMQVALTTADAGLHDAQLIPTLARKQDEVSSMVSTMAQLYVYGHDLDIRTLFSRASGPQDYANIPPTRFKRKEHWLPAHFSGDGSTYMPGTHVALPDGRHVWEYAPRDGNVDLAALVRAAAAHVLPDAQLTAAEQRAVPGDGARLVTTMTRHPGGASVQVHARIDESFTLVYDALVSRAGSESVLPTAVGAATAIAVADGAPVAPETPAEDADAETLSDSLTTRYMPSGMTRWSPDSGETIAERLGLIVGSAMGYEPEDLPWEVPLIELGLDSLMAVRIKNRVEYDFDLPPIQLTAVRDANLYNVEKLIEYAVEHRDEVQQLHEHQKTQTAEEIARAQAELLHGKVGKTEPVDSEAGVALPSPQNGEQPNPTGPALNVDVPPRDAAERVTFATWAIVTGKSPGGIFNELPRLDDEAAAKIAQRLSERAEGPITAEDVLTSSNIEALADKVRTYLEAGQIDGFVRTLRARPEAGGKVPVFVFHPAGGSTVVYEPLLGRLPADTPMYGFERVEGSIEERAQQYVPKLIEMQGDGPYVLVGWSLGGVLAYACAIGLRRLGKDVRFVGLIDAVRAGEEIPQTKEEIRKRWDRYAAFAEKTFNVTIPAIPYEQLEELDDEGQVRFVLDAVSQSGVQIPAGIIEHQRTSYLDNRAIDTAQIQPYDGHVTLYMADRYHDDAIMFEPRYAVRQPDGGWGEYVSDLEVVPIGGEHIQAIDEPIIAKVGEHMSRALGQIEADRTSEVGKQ
UniProt Q8IDJ8, 1-583: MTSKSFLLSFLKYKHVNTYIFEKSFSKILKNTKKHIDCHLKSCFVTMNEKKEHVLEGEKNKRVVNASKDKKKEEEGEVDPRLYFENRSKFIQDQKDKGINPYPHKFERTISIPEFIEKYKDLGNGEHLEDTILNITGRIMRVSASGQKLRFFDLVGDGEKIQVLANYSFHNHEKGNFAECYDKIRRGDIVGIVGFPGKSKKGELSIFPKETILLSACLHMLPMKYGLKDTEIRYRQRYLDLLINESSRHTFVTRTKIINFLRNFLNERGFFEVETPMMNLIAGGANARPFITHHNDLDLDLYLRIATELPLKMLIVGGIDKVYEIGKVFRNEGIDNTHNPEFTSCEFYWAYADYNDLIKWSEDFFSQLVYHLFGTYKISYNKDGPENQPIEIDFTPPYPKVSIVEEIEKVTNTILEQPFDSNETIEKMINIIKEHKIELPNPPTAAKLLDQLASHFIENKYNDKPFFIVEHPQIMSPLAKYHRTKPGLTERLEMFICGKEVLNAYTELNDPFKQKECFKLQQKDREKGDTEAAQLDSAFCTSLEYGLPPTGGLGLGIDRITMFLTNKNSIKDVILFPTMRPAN

ClpP1P2: 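ClpP1P2, Mycobacterium tuberculosis (UniProt P9WPC5 and UniProt P9WPC3). Protease assay of ClpP1P2, read by the AMC dye that it sets free. Compounds at 50 µM. Higher reads as stronger inhibition, judged from the few compounds that gave an IC50. Most other retested compounds had strongly negative values. Size under these conditions: about 69,000 compounds, about 10 of them at 50% or above in at least one test.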
Leishmania in macrophages: 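Cell assay of Leishmania donovani living inside macrophages; the read-out is not stated. Compounds at 30 µM. Higher reads as stronger inhibition (inferred: compounds with an IC50 in retests scored well above the rest). Size under these conditions: about 69,000 compounds, about 1,000 of them at 50% or above in at least one test.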
Pks13 thioesterase: 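Enzyme assay of the thioesterase domain of polyketide synthase 13; the read-out is not stated. Target: Polyketide synthase Pks13, Mycobacterium tuberculosis (UniProt I6X8D2). Concentration: 30 µM. Higher reads as stronger inhibition (inferred from which compounds were picked for retests). Size under these conditions: about 67,000 compounds, about 300 of them at 50% or above in at least one test.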
PfKRS1: 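Enzyme assay of the cytosolic lysyl-tRNA synthetase in 384-well plates, read by luminescence. Target: Lysine-tRNA ligase, Plasmodium falciparum 3D7 (UniProt Q8IDJ8). Compounds at 30 µM. Direction is inferred from only a few compounds that gave an IC50; most scored high, so higher reads as stronger inhibition. About 69,000 compounds were tested under these conditions; 0.071% (about 49) showed 50% or more at least once.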
Toxoplasma: 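Assay of Toxoplasma gondii numbers, read through their beta-galactosidase reporter with a colour substrate. Concentration: 10 µM. Higher reads as fewer parasites (inferred from which compounds were picked for retests). Of about 67,000 compounds tested this way, about 260 (0.38%) reached 50% or more in at least one test.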

Each number is a percent effect as filed.
The controls that fix the scale are not given in the record; negative values are as filed.
The compounds are a random part of those screened.
Two or more numbers in one place are separate tests of the same structure; such repeats can differ widely.

[H][C@@]12CN(C(=O)CC(F)(F)F)C[C@]1([H])C(=O)N(CC1CC1)C2 read Leishmania in macrophages: -4.429%; Toxoplasma: -55.73%.
CC(C)N1[C@H](CN(C)C)C[C@@H]2CN(c3ncc(F)cn3)CC[C@@H]21 read ClpP1P2: -4.923%; Pks13 thioesterase: 0.6356%; PfKRS1: -2.937%.
CS(=O)(=O)NCc1cnc2n1CCN(Cc1ccccn1)CC2.O=C(O)C(F)(F)F read Leishmania in macrophages: 36.78%; Toxoplasma: -7.47%.
CN(C)C(C(=O)N1CCC(N2CCSCC2)CC1)c1ccccc1F (centres unmarked) read ClpP1P2: 1.58%; Leishmania in macrophages: 37.79%; Pks13 thioesterase: -20.23%; PfKRS1: 0.8326%; Toxoplasma: -3.722%.
Cc1ccc(C)c2c(C)c(C(=O)NCCCn3ccnn3)[nH]c12 read ClpP1P2: 10.75%; Leishmania in macrophages: -0.7205%; Pks13 thioesterase: -3.923%; PfKRS1: -4.298%; Toxoplasma: -6.958%.
COCCNC(=O)c1cc2c(s1)CCN2S(C)(=O)=O read ClpP1P2: -14.94%; Leishmania in macrophages: 0.3794%; PfKRS1: -1.014%; Toxoplasma: 10.43%.
CCc1nnc2n1CCN(Cc1nc3c(F)cccc3[nH]1)C2 read ClpP1P2: -12.76%; Leishmania in macrophages: -4.004%; Pks13 thioesterase: 2.58%; PfKRS1: -0.1822%; Toxoplasma: -2.009%.
Cc1ccc(N2CCC3(CCN(C(=O)N(C)C)CC3)CC2)nn1 read ClpP1P2: 0.8768%; Pks13 thioesterase: -10.57%; PfKRS1: 3.12%.
Cc1cn2nc(N3CCN(Cc4c(C)noc4C)CC3)sc2n1 read ClpP1P2: -5.7%; Leishmania in macrophages: 21.31%; Pks13 thioesterase: -13.67%; PfKRS1: -1.621%; Toxoplasma: -23.87%.
O=C(O)C1CN(Cc2cnc(C3CCCCC3)nc2)CCO1 (centres unmarked) read ClpP1P2: -2.246%; Leishmania in macrophages: -1.098%; Pks13 thioesterase: 9.92%; PfKRS1: 1.381%; Toxoplasma: 4.662%.
O=C(CNCCn1cccn1)NCC1(c2ccccc2)CCOCC1 read ClpP1P2: -46.35%; Leishmania in macrophages: 9.517%; Pks13 thioesterase: -0.7075%; PfKRS1: 2.601%; Toxoplasma: 0.6277%.
COc1ncccc1C(=O)N1CC(c2nc(-c3ccccn3)no2)C1 read ClpP1P2: -2.889%; Leishmania in macrophages: -3.227%; Pks13 thioesterase: -8.32%; PfKRS1: -0.2655%; Toxoplasma: -25.4%.
CN(C)C(CNC(=O)c1cccc(C(N)=O)c1)c1ccccc1Cl (centres unmarked) read ClpP1P2: -0.2217%; Leishmania in macrophages: -26.19%; Pks13 thioesterase: 1.242%; PfKRS1: 7.761%; Toxoplasma: 21.78%.
Cl.FC(F)CNc1cnc(C2CCNCC2)cn1 read Leishmania in macrophages: 27.96%; Toxoplasma: 25.09%.
O=S(=O)(CCOc1ccc(F)cc1)Nc1cnn(CC(F)F)c1 read ClpP1P2: 0.7294%; Leishmania in macrophages: -1.374%; Pks13 thioesterase: -1.321%; PfKRS1: 3.841%; Toxoplasma: -4.56%.
Cc1nc2ccc(C(=O)N3C[C@@H](O)[C@H](N4CCOCC4)C3)cc2[nH]1 read ClpP1P2: 11.71%; Leishmania in macrophages: 5.29% and 3.108%; PfKRS1: -3.387%; Toxoplasma: -61.49%.
CN1C[C@@H](C(=O)NC2CC2)[C@@]2(COc3ccc(F)cc3C2=O)C1 read ClpP1P2: 0.4599%; Leishmania in macrophages: -7.143%; Pks13 thioesterase: -31.69%; PfKRS1: -1.613%; Toxoplasma: 2.582%.
Cc1ccc(CN2CCC(NC(=O)c3scnc3C)CC2)cc1 read ClpP1P2: -25.12%; Leishmania in macrophages: -61.25%; Pks13 thioesterase: -13.92%; PfKRS1: 3.796%; Toxoplasma: -9.354%.
O=C(O)C(F)(F)F.[H][C@]12CN(Cc3cccc(F)c3)C(=O)[C@@]1([H])CN(C1CCOCC1)C2 read Leishmania in macrophages: -3.142%; Toxoplasma: -6.609%.
CSCC[C@@H]1CN2CCC[C@H]2CN1Cc1cn(C)nc1C read ClpP1P2: -14.71%; PfKRS1: -3.659%.
c1ccc2sc(NCC3(N4CCOCC4)CCSC3)nc2c1 (centres unmarked) read ClpP1P2: -2.39%; Leishmania in macrophages: 30.42%; PfKRS1: 2.823%; Toxoplasma: 1.654%.
[H][C@@]12COC[C@@H](Cc3nnc(C)o3)[C@]1([H])CN(C(=O)c1ccco1)C2 read Leishmania in macrophages: 29.85%; Toxoplasma: 9.947%.
Cc1cnccc1NCCNC1CCN(CC(C)C)CC1 read ClpP1P2: 1.187%; Leishmania in macrophages: 35.42%; Pks13 thioesterase: -13.11%; PfKRS1: 0.904%; Toxoplasma: 10.04%.
Cc1ccc(-c2nc(CNCC3CN(C)CCO3)co2)cc1 (centres unmarked) read ClpP1P2: -0.7801%; Leishmania in macrophages: 27.2%; Pks13 thioesterase: 14.39%; PfKRS1: -2.022%; Toxoplasma: -57.37%.
CC(O)CN1CCN(Cc2coc(-c3ccccc3Cl)n2)CC1 (centres unmarked) read ClpP1P2: 9.166%; Leishmania in macrophages: 12.3%; Pks13 thioesterase: -8.027%; PfKRS1: 3.811%; Toxoplasma: 4.626%.
COc1ccc(CN2CCn3cncc3C2)cc1Cn1cncn1 read ClpP1P2: 9.26%; Leishmania in macrophages: 11.91%; Pks13 thioesterase: -14.63%; PfKRS1: 1.512%; Toxoplasma: 3.984%.
COCCN1CCN(Cc2ccco2)Cc2ccc(C)nc21.O=C(O)C(F)(F)F.O=C(O)C(F)(F)F read Leishmania in macrophages: -3.757% and 4.161%; Toxoplasma: -5.48%.
COC(C)c1nc(CN2CCCNCC2)cs1 (centres unmarked) read ClpP1P2: -5.526%; Leishmania in macrophages: 8.956%; Pks13 thioesterase: 1.606%; PfKRS1: 1.538%; Toxoplasma: 9.058%.
CCCS(=O)(=O)N1CCO[C@H]2[C@@H](Oc3cccnc3)CC[C@@H]21 read ClpP1P2: -6.303%; Pks13 thioesterase: -7.206%; PfKRS1: 0.2218%.

Some entries from above, unchanged:

{"structure": "CCCS(=O)(=O)N1CCO[C@H]2[C@@H](Oc3cccnc3)CC[C@@H]21", "ClpP1P2": -6.303, "Pks13 thioesterase": -7.206, "PfKRS1": 0.2218}
{"structure": "c1ccc2sc(NCC3(N4CCOCC4)CCSC3)nc2c1", "stereo": "centres unmarked", "ClpP1P2": -2.39, "Leishmania in macrophages": 30.42, "PfKRS1": 2.823, "Toxoplasma": 1.654}
{"structure": "COC(C)c1nc(CN2CCCNCC2)cs1", "stereo": "centres unmarked", "ClpP1P2": -5.526, "Leishmania in macrophages": 8.956, "Pks13 thioesterase": 1.606, "PfKRS1": 1.538, "Toxoplasma": 9.058}